{"source": "PubChem BioAssay AID1259254 (NCATS, 2017)", "purpose": "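Gene knock-downs that lead to re-replication, shown by excess G2 DNA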 (primary screen)", "cell system": "human HCT116 colorectal cancer cells", "reagents": "single siRNA against human genes", "timing": "3 days", "detection": "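Nuclei stained with Hoechst and imaged; cell-cycle phase assigned by DNA content; G2 share scaled per plate, non-targeting siRNA 0%, GMNN siRNA 100%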", "reading the numbers": "G2 robust z-score: higher = more G2 cells, more excess DNA replication", "hit rule": "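Active siRNAs have a G2 robust z of 5 or more median absolute deviations over the median, which in these data means about 38% or higher of GMNN control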", "note": "The deposit covers about 59,000 reagents; this is an unselected part. Over the whole deposit, about 1,550 (2.6%) were called active. 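G2 share is only a proxy for re-replication; each gene was hit by three separate siRNAs, and active genes were retested.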 Entries without a mark were called inactive. The numbers tell different reagents against one gene apart. Further read-outs or replicates are left out here. Not stated in the record: the amount of reagent."}
{"target": "P2RY12 (purinergic receptor P2Y12)", "reagent no.": 1, "G2 robust z-score": -0.524}
{"target": "P2RY12 (purinergic receptor P2Y12)", "reagent no.": 2, "G2 robust z-score": 0.502}
{"target": "P2RY12 (purinergic receptor P2Y12)", "reagent no.": 3, "G2 robust z-score": -0.533}
{"target": "E2F1 (E2F transcription factor 1)", "reagent no.": 1, "G2 robust z-score": -1.18}
{"target": "E2F1 (E2F transcription factor 1)", "reagent no.": 2, "G2 robust z-score": 0.924}
{"target": "E2F1 (E2F transcription factor 1)", "reagent no.": 3, "G2 robust z-score": -0.887}
{"target": "HAS2 (hyaluronan synthase 2)", "reagent no.": 1, "G2 robust z-score": 1.41}
{"target": "HAS2 (hyaluronan synthase 2)", "reagent no.": 2, "G2 robust z-score": -0.597}
{"target": "HAS2 (hyaluronan synthase 2)", "reagent no.": 3, "G2 robust z-score": -0.203}
{"target": "VEPH1 (ventricular zone expressed PH domain containing 1)", "reagent no.": 1, "G2 robust z-score": 0.957}
{"target": "VEPH1 (ventricular zone expressed PH domain containing 1)", "reagent no.": 2, "G2 robust z-score": -0.295}
{"target": "VEPH1 (ventricular zone expressed PH domain containing 1)", "reagent no.": 3, "G2 robust z-score": 0.132}
{"target": "INTS6L (integrator complex subunit 6 like)", "reagent no.": 1, "G2 robust z-score": -0.256}
{"target": "INTS6L (integrator complex subunit 6 like)", "reagent no.": 2, "G2 robust z-score": 1.02}
{"target": "INTS6L (integrator complex subunit 6 like)", "reagent no.": 3, "G2 robust z-score": -0.14}
{"target": "BOD1L1 (biorientation of chromosomes in cell division 1 like 1)", "reagent no.": 1, "G2 robust z-score": -0.709}
{"target": "BOD1L1 (biorientation of chromosomes in cell division 1 like 1)", "reagent no.": 2, "G2 robust z-score": -0.343}
{"target": "BOD1L1 (biorientation of chromosomes in cell division 1 like 1)", "reagent no.": 3, "G2 robust z-score": -0.055}
{"target": "APTX (aprataxin)", "reagent no.": 1, "G2 robust z-score": -0.0289}
{"target": "APTX (aprataxin)", "reagent no.": 2, "G2 robust z-score": -0.936}
{"target": "APTX (aprataxin)", "reagent no.": 3, "G2 robust z-score": -0.0841}
{"target": "ZNF691 (zinc finger protein 691)", "reagent no.": 1, "G2 robust z-score": 0.21}
{"target": "ZNF691 (zinc finger protein 691)", "reagent no.": 2, "G2 robust z-score": -0.541}
{"target": "ZNF691 (zinc finger protein 691)", "reagent no.": 3, "G2 robust z-score": -0.547}
{"target": "OTUD7B (OTU deubiquitinase 7B)", "reagent no.": 1, "G2 robust z-score": 1.77}
{"target": "OTUD7B (OTU deubiquitinase 7B)", "reagent no.": 2, "G2 robust z-score": -0.358}
{"target": "OTUD7B (OTU deubiquitinase 7B)", "reagent no.": 3, "G2 robust z-score": 0.412}
{"target": "DLK2 (delta like non-canonical Notch ligand 2)", "reagent no.": 1, "G2 robust z-score": 2.53}
{"target": "DLK2 (delta like non-canonical Notch ligand 2)", "reagent no.": 2, "G2 robust z-score": -0.435}
{"target": "DLK2 (delta like non-canonical Notch ligand 2)", "reagent no.": 3, "G2 robust z-score": 0.0323}
